Experimental data from the supplement of paper PMC10849652.
Some of the results follow.

Amino acid sequences for entries named in this document (tags omitted). A change or cut given only in a name is not applied to a line headed by its entry.
UniProt Q99574: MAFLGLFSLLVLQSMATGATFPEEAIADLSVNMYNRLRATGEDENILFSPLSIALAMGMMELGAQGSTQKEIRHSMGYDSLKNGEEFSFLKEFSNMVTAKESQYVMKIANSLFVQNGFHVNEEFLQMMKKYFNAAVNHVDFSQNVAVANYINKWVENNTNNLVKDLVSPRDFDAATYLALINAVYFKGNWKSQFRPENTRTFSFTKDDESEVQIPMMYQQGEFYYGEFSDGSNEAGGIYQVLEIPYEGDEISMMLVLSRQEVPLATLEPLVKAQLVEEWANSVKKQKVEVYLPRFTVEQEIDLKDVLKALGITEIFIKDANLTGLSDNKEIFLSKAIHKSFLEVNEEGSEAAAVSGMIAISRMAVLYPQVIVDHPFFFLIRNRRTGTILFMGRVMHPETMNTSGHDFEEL
UniProt Q9UP95: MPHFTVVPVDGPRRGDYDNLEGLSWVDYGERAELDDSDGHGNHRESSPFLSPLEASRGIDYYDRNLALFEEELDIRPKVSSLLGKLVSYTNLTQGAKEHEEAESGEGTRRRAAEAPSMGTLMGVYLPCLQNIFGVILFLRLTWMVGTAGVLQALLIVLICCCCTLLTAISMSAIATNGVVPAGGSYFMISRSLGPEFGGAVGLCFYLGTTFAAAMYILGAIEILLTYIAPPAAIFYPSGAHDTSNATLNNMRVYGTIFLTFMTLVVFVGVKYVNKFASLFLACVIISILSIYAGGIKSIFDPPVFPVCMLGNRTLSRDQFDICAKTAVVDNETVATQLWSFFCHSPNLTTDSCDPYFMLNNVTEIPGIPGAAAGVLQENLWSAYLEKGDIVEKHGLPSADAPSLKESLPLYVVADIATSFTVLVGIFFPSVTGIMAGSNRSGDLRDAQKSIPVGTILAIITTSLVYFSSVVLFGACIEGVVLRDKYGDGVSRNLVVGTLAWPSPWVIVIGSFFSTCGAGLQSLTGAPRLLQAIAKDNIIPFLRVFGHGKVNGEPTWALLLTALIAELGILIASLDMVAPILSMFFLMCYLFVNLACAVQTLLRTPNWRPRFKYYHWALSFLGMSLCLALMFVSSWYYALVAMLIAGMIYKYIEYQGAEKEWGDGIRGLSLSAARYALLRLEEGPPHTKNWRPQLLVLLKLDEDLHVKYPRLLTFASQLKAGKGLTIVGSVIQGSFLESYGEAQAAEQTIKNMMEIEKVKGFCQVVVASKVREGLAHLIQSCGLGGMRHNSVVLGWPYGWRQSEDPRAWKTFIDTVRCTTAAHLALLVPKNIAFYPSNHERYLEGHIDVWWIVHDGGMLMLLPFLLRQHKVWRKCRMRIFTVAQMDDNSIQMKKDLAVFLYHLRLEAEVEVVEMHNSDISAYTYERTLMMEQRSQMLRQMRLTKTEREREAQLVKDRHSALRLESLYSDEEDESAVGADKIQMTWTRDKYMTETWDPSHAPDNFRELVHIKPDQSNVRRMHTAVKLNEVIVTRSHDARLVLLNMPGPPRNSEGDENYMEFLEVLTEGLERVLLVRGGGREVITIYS
UniProt O43166: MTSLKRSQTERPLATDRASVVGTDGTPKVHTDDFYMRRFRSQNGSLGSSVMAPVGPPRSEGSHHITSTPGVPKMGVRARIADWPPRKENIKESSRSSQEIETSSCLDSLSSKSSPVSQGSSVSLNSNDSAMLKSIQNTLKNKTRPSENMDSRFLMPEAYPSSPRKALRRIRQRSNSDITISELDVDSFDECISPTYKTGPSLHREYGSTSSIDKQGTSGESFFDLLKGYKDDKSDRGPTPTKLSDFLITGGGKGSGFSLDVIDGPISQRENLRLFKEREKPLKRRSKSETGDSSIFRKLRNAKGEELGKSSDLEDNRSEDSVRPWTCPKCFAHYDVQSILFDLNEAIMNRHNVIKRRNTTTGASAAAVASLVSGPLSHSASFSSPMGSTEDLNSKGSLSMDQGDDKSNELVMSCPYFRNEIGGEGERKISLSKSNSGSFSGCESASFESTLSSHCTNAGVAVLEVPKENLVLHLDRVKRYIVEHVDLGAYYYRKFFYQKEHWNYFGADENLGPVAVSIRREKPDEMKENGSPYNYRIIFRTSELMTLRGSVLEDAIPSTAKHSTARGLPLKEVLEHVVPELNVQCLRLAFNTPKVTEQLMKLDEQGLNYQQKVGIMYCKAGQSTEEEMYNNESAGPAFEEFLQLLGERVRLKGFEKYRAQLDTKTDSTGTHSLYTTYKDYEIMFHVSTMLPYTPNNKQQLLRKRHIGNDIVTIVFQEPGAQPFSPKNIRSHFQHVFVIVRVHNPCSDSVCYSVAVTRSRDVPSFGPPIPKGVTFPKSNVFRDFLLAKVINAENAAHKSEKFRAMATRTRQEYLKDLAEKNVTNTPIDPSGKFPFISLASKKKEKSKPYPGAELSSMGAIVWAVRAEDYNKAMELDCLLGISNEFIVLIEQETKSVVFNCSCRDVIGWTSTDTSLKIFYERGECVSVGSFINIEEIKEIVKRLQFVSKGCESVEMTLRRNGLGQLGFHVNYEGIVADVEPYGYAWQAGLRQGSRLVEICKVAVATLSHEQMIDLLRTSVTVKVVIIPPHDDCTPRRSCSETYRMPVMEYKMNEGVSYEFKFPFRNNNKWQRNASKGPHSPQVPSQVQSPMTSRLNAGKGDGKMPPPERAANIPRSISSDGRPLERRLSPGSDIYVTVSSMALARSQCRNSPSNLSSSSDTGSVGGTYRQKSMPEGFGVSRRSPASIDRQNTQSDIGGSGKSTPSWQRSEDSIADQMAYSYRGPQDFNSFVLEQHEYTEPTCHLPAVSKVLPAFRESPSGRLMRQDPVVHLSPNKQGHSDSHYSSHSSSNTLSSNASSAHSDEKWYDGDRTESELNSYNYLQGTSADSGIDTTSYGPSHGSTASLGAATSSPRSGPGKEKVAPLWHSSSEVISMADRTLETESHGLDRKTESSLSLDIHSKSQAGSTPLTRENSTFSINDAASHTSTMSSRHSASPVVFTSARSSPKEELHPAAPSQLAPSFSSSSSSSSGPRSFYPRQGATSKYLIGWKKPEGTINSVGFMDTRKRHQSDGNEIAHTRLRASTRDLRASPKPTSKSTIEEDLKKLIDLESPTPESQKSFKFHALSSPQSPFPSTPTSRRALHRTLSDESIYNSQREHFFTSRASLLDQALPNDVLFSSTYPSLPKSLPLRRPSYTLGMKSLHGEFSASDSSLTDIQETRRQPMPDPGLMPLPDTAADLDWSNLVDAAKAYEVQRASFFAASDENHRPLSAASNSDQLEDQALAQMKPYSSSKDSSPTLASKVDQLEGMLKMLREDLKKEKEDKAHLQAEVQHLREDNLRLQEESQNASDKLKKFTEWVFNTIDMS
UniProt A0MZ66, whole entry, looked up: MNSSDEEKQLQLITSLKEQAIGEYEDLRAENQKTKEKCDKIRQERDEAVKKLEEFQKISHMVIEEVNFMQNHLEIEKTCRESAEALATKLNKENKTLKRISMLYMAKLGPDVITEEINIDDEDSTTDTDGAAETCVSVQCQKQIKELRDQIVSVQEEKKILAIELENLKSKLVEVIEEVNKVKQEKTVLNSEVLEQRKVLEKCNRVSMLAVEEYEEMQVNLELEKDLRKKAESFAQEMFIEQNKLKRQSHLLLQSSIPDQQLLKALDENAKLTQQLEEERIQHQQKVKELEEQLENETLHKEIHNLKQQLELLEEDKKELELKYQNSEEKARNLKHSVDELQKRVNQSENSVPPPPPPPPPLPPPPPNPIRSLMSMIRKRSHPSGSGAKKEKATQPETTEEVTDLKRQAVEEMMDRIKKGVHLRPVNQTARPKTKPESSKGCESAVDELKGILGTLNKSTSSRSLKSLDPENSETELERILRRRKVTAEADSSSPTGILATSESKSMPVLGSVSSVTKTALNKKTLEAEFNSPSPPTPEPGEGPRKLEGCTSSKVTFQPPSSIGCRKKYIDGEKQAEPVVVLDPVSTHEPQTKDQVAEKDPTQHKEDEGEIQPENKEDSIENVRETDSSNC
UniProt P78314: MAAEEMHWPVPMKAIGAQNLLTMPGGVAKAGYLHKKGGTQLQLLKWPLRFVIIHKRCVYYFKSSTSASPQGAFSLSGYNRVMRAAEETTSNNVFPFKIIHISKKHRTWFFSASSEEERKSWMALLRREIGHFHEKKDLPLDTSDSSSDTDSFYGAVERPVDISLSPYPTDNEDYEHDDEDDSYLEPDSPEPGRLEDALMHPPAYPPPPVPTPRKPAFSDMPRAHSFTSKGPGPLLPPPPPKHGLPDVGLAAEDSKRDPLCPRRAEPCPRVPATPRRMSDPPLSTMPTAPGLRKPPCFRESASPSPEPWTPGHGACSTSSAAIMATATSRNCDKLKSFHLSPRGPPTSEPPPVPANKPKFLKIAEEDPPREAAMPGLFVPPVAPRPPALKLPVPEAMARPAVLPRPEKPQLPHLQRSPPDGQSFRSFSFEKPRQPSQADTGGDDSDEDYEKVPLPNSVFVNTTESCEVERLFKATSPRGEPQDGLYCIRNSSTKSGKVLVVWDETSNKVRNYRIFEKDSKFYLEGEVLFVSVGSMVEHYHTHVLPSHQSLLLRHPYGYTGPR
UniProt P50453: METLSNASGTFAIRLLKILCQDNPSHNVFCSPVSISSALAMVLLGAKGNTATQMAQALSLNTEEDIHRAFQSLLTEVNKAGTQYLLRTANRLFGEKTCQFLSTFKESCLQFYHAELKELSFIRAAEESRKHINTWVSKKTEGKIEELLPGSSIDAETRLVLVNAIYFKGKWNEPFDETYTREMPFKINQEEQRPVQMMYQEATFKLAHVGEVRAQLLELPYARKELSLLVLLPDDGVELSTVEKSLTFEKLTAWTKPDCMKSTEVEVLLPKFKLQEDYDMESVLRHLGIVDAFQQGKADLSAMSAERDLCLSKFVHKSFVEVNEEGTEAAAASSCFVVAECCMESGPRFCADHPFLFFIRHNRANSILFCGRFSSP
UniProt Q15427: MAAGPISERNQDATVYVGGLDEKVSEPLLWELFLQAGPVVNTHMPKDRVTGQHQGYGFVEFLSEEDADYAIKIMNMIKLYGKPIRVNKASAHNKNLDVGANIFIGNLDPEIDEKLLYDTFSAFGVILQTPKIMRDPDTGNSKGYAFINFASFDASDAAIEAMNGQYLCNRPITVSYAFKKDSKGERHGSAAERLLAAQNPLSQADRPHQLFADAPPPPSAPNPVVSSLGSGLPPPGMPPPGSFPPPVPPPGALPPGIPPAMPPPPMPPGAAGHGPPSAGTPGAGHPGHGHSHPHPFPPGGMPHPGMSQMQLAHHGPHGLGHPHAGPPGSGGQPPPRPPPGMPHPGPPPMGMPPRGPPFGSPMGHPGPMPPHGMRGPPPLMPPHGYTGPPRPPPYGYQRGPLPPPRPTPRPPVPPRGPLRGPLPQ
UniProt Q99961: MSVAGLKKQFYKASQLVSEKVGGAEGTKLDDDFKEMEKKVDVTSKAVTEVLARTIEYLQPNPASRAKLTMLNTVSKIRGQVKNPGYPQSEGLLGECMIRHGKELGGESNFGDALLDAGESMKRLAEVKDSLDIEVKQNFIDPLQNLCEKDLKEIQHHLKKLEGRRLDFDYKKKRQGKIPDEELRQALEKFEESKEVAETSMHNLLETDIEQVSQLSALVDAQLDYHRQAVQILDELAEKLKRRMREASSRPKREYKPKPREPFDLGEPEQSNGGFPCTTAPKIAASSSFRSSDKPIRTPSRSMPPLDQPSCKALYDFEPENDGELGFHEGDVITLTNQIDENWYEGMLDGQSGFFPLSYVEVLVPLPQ
UniProt P84101: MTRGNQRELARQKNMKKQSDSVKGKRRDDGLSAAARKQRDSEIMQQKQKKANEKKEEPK
UniProt Q8N196: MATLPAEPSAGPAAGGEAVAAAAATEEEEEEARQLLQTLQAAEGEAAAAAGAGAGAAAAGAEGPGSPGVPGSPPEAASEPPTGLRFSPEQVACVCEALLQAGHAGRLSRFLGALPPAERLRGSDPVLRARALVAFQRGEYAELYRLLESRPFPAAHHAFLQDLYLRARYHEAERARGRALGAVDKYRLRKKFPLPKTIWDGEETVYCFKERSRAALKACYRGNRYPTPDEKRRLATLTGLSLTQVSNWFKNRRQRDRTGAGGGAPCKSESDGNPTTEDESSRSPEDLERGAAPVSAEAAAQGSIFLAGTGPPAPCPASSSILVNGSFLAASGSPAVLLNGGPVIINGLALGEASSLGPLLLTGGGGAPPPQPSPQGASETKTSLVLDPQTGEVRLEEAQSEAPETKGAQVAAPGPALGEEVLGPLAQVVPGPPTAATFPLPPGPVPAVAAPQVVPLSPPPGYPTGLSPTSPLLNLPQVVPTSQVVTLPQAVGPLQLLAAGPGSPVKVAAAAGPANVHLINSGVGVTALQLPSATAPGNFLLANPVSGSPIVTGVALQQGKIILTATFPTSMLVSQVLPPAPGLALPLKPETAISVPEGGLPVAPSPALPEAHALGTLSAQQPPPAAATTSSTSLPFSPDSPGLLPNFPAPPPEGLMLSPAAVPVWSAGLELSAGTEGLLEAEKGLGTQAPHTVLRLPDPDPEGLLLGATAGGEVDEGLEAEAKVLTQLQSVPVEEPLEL

What was measured:
Test in all cases: log2 fold change, soluble protein after heating vs DMSO (PISA); higher = thermal stabilisation; K562 lysate, 10 uM; active = over 0.2 and 3.5 SD of the protein, either way, in both replicates (recomputed)
ibrutinib = compound: C=CC(=O)N1CCC[C@@H](n2nc(-c3ccc(Oc4ccccc4)cc3)c3c(N)ncnc32)C1 [ibrutinib]
Outline: (§1)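 Log-two fold change in thermal stability relative to solvent controls is reported from duplicates. For each sample, crude K562 extract from dounce-homogenised pellets in PBS pH 7.4 with 1 mM MgCl2, at 1 mg/mL protein, was treated with 10 μM compound for 30 min. Aliquots heated for 3 min across 48°C-58°C were pooled, brought to 0.5% NP-40 at 4°C and cleared at 21,000xg for 90 min. The supernatant was quantified by TMTpro 16plex LC-MS/MS with channel sums equalised.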

[1] = compound: CC(=O)c1cnc2ccc(-c3cc(Cl)c(O)c(Cl)c3)nc2c1N[C@H]1CC[C@H](CN(C)C)CC1
Outline: as §1

ralimetinib = compound: CC(C)(C)Cn1c(N)nc2ccc(-c3[nH]c(C(C)(C)C)nc3-c3ccc(F)cc3)nc21 [ralimetinib]
Outline: as §1

[2] = compound: CC(C)(O)CC(=O)NCCn1ccc2ncnc(Nc3ccc(Oc4cccc(C(F)(F)F)c4)c(Cl)c3)c21
Outline: as §1

[3] = compound: CC(C)C1=C2N=C(C=C(N2N=C1)NCC3=CC=CC=C3)NCCCCCCN
Outline: as §1

[4] = compound: CC1=C(C(CC(=O)N1)C2=CC=C(C=C2)C(F)(F)F)C(=O)NC3=C(C=C4C(=C3)C=NN4)F
Outline: as §1

[5] = compound: CC1=C(C2=C(C=C1)C(=O)C3=CC=CC=C3N2CCCN)C
Outline: as §1

[6] = compound: CC1=C(C=C(C=C1)NC(=O)C2=CC(=CC=C2)C(C)(C)C#N)NC3=CC4=C(C=C3)N=CN(C4=O)C
Outline: as §1

[7] = compound: CC1=C(C=C(C=C1)NC(=O)C2=CC(=CC=C2)N(C)C)NC(=O)C3=CC=C(C=C3)O
Outline: as §1

[8] = compound: CC1=CC=C(C=C1)SC2=C3C=C(SC3=CN=C2)C(=O)N
Outline: as §1

Measured: log2 fold change

SERPINI1 (UniProt Q99574)
inactive: ibrutinib 0.063 | [1] 0.075 | ralimetinib 0.001 | [2] 0.024 | [3] 0.005 | [4] 0.056 | [5] 0.004 | [6] -0.024 | [7] -0.028 | [8] -0.054

SLC12A4 (UniProt Q9UP95)
inactive: ibrutinib -0.045 | [1] 0.001 | ralimetinib 0.01 | [2] 0.027 | [3] -0.019 | [4] -0.013 | [5] 0.073 | [6] 0.032 | [7] -0.012 | [8] 0.063

SGTA (UniProt O43765)
inactive: ibrutinib 0.033 | [1] 0.004 | ralimetinib -0.018 | [2] 0.014 | [3] 0.022 | [4] -0.036 | [5] 0.016 | [6] 0.01 | [7] -0.01 | [8] -0.009

SGO1 (UniProt Q5FBB7)
inactive: ibrutinib -0.033 | [1] 0.03 | ralimetinib -0.059 | [2] 0.033 | [3] 0.047 | [4] -0.059 | [5] 0.012 | [6] -0.05 | [7] 0 | [8] 0.036

SIPA1L1 (UniProt O43166)
inactive: ibrutinib -0.009 | [1] -0.098 | ralimetinib -0.001 | [2] -0.017 | [3] 0.047 | [4] -0.053 | [6] 0.208 | [7] 0.009 | [8] -0.054

SH3KBP1 (UniProt Q96B97)
inactive: ibrutinib 0.349 | [1] -0.016 | ralimetinib 0.035 | [2] -0.184 | [3] 0.037 | [5] 0.048 | [6] 0.046 | [7] -0.013 | [8] 0.097

SESN1 isoform 2 (UniProt Q9Y6P5)
inactive: ibrutinib -0.08 | [1] -0.093 | [3] -0.022 | [6] 0.024 | [8] -0.142

SFSWAP isoform 2 (UniProt Q12872)
inactive: ibrutinib 0.028 | [1] -0.006 | ralimetinib 0.013 | [2] -0.023 | [3] 0.005 | [4] 0 | [5] -0.006 | [6] 0.009 | [7] 0.038 | [8] 0.097

SHCBP1 (UniProt Q8NEM2)
inactive: ibrutinib -0.04 | [1] 0.023 | ralimetinib 0.026 | [2] 0.031 | [3] 0.012 | [4] 0.009 | [5] 0.002 | [6] -0.008 | [7] 0.056 | [8] -0.041

SF3B2 (UniProt E9PJ04)
inactive: ibrutinib 0.052 | [1] 0.026 | [3] 0.045 | [4] -0.098 | [8] -0.093

SIAE (UniProt Q9HAT2)
inactive: ibrutinib 0.029 | ralimetinib -0.094 | [2] -0.488 | [6] -0.097 | [7] 0.186

SERAC1 (UniProt Q96JX3)
inactive: ibrutinib 0.066 | [3] -0.115 | [4] 0.051 | [5] -0.193

SLC15A4 (UniProt Q8N697)
inactive: ibrutinib 0.044 | [1] 0.024 | [3] 0.088 | [5] -0.072 | [6] -0.021 | [8] -0.027

SERBP1 (UniProt Q8NC51)
inactive: ibrutinib 0.006 | [1] -0.019 | ralimetinib -0.046 | [2] -0.013 | [3] 0.007 | [4] -0.03 | [5] 0.001 | [6] -0.023 | [7] -0.01 | [8] -0.007

SFXN4 isoform 3 (UniProt Q6P4A7)
inactive: ibrutinib 0.144 | ralimetinib -0.069 | [2] -0.151 | [3] 0.013 | [4] -0.339 | [6] -0.046 | [7] -0.084

SERBP1 isoform 3 (UniProt Q8NC51)
inactive: ibrutinib 0.022 | [1] 0.014 | ralimetinib -0.016 | [2] -0.001 | [3] -0.076 | [5] -0.079 | [6] -0.008 | [7] 0.06 | [8] -0.114

SHTN1 (UniProt A0MZ66)
inactive: ibrutinib 0.003 | [1] -0.003 | ralimetinib -0.003 | [2] 0.003 | [3] -0.009 | [4] 0 | [5] -0.031 | [6] 0.023 | [7] 0.004 | [8] -0.004

SH3BP2 isoform 4 (UniProt P78314)
inactive: ibrutinib 0.096 | [1] -0.084 | ralimetinib 0.07 | [2] 0.137 | [3] -0.004 | [5] -0.297 | [6] 0.03 | [7] -0.126 | [8] 0.073

SLC22A18 (UniProt Q96BI1)
inactive: ibrutinib 0.099 | [1] -0.047 | [3] 0.049 | [6] 0.02 | [8] 0.011

SH2D3A (UniProt Q9BRG2)
inactive: ibrutinib -0.004 | ralimetinib -0.043 | [2] -0.102 | [4] 0.139 | [7] 0.007

SLC17A5 (UniProt Q9NRA2)
inactive: ibrutinib 0.176 | [1] 0.081 | ralimetinib -0.054 | [2] -0.073 | [3] 0.07 | [4] -0.056 | [5] 0.019 | [7] 0.021 | [8] -0.07

Quoted from the entries so far (2 entries):
SHTN1 (UniProt A0MZ66)
inactive: ibrutinib 0.003 | [1] -0.003 | ralimetinib -0.003 | [2] 0.003 | [3] -0.009 | [4] 0 | [5] -0.031 | [6] 0.023 | [7] 0.004 | [8] -0.004

SH3BP2 isoform 4 (UniProt P78314)
inactive: ibrutinib 0.096 | [1] -0.084 | ralimetinib 0.07 | [2] 0.137 | [3] -0.004 | [5] -0.297 | [6] 0.03 | [7] -0.126 | [8] 0.073

Further results

SERPINB9 (UniProt P50453)
inactive: ibrutinib 0.038 | [1] -0.015 | ralimetinib 0.009 | [2] 0.005 | [3] -0.011 | [4] -0.019 | [5] 0.023 | [6] 0.025 | [7] -0.001 | [8] -0.016

SLC19A2 (UniProt O60779)
inactive: ibrutinib 0.062 | [1] 0.088 | [4] -0.003 | [5] -0.009 | [8] -0.088

SIAH2 (UniProt O43255)
inactive: ibrutinib 0.02 | [1] 0.039 | [3] 0.007 | [4] 0.07 | [8] 0.031

SIX4 (UniProt Q9UIU6)
inactive: ibrutinib 0.096 | [1] -0.067 | ralimetinib 0.104 | [2] -0.029 | [3] 0.029 | [4] 0.098 | [7] 0.113 | [8] -0.179

SF3B4 (UniProt Q15427)
inactive: ibrutinib 0.003 | [1] -0.005 | ralimetinib -0.023 | [2] -0.061 | [3] -0.054 | [4] -0.033 | [5] 0.006 | [6] 0.002 | [7] 0.032 | [8] -0.031

SH3GL1 (UniProt Q99961)
inactive: ibrutinib -0.004 | [1] 0 | ralimetinib 0.031 | [2] 0.006 | [3] -0.015 | [4] -0.03 | [5] 0.017 | [6] 0.025 | [7] 0.006 | [8] -0.012

SLAIN2 (UniProt Q9P270)
inactive: ibrutinib 0.064 | [1] -0.004 | ralimetinib -0.007 | [2] -0.028 | [3] 0.013 | [4] -0.013 | [5] -0.023 | [6] 0.008 | [7] -0.005 | [8] -0.002

SLC20A2 (UniProt Q08357)
inactive: ibrutinib 0.107 | [1] 0.014 | ralimetinib 0.013 | [2] -0.016 | [4] 0.227 | [5] 0.016 | [6] -0.039 | [7] -0.027 | [8] 0.024

SERF2 (UniProt P84101)
inactive: ibrutinib -0.005 | [1] -0.062 | ralimetinib -0.016 | [2] -0.09 | [3] -0.012 | [4] 0.02 | [5] -0.039 | [6] 0.047 | [7] 0.007 | [8] 0.029

SERPINC1 (UniProt P01008)
inactive: ibrutinib -0.075 | [1] -0.042 | ralimetinib 0 | [2] -0.079 | [3] 0.007 | [4] 0.038 | [5] 0.009 | [6] 0.013 | [7] -0.146 | [8] -0.062

SIX5 (UniProt Q8N196)
inactive: ibrutinib -0.021 | [1] 0.009 | ralimetinib -0.023 | [2] -0.046 | [3] -0.042 | [4] -0.061 | [5] 0.011 | [6] 0.017 | [7] 0.13 | [8] 0.021
